Measured values taken from publication PMC5855688, “BC-Box Motif-Mediated Neuronal Differentiation of Somatic Stem Cells” (International Journal of Molecular Sciences, 2018).
Results are given in words; binding and its absence hold for the method and conditions named. Binding seen in cells or lysates may run through a third protein. Some results given as binding are weak or reduced against the parent protein; the word gives no strength.

Chains of the proteins cited; added tags and fusions are not shown.
UniProt P83941: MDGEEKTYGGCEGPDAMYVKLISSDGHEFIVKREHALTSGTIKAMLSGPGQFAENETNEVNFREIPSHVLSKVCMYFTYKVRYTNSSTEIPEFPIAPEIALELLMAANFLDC

Target: elongin C (rat (endogenous in SKPs)) (UniProt P83941)
Test: co-IP; RIPA lysates of rat SKPs treated with FITC peptide; immunoprecipitated with anti-elongin C antibody (Protein A Microbeads), blotted with anti-FITC antibody

binding	Binder
binds weakly	YARAAARQARATLKERCLQVVRS [FITC-VHL(157–168)]
binds	YARAAARQARATLKERCLQVVRSLVK [FITC-VHL(157–171)]
